Values from PubChem BioAssay AID1259424 (University of Nebraska Medical Center, 2018).
Here is a random part of about 14,000 reagents. 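Higher correlation or smaller distance means closer resemblance to KSR1 loss; control wells, including KSR1 knockdowns, recur on many plates.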 Not stated in the record: the time to read-out.

Screen: 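Seek colon cancer survival genes behaving like KSR1, using a six-gene signature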 (primary screen)
Cell system: human HCT116 colon cancer cells
Reagents: siRNA pool against human genes, 50 nM
Detection: 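Log2 levels of six mRNAs (branched-DNA multiplex), adjusted by two reference genes and the non-targeting median, then scored against the average KSR1 knockdown pattern as Pearson r and euclidean distance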
Reading the numbers: mean correlation with KSR1 profile and KSR1 correlation: higher = expression change more like KSR1 knockdown; mean distance from KSR1 profile: higher = expression change less like KSR1 knockdown

gene	mean correlation with KSR1 profile	mean distance from KSR1 profile	KSR1 correlation, replicate 1	KSR1 correlation, replicate 2	KSR1 correlation, replicate 3
ULK4 (unc-51 like kinase 4)	0.806	2.49	0.897	0.79	0.415
POGLUT1 (protein O-glucosyltransferase 1)	-0.429	5.52	-0.561	-0.148	-0.333
USP29 (ubiquitin specific peptidase 29)	-0.635	1.21	-0.245	-0.713	-0.912
CPSF4 (cleavage and polyadenylation specific factor 4)	-0.671	1.41	-0.555	-0.539	-0.486
RPS6KA3 (ribosomal protein S6 kinase A3)	0.0206	1.56	0.458	-0.0958	-0.582
ACSF2 (acyl-CoA synthetase family member 2)	0.666	1.33	0.697	0.75	0.611
CRYAB (crystallin alpha B)	-0.161	2.52	-0.126	0.0442	-0.332
HLA-F (major histocompatibility complex, class I, F)	-0.252	1.71	-0.185	-0.327	-0.303
SLC25A44	0.209	1.69	0.301	0.363	-0.202
OVOL2 (ovo like zinc finger 2)	0.0102	1.18	-0.334	0.316	0.182
CAMK4 (calcium/calmodulin dependent protein kinase IV)	0.121	1.65	0.271	0.024	-0.278
NACA4P (NACA family member 4, pseudogene)	0.93	0.896	-0.0852	0.965	0.939
SLC25A32	0.0847	1.84	-0.195	-0.00974	0.0668
FBXL18 (F-box and leucine rich repeat protein 18)	0.153	1.57	0.11	-0.269	0.145
ITIH2 (inter-alpha-trypsin inhibitor heavy chain 2)	0.388	1.46	0.402	0.151	0.493
PPIP5K2 (diphosphoinositol pentakisphosphate kinase 2)	-0.165	2.01	-0.297	-0.163	-0.219
IPCEF1 (interaction protein for cytohesin exchange factors 1)	-0.342	1.17	-0.207	-0.0745	-0.811
PHOX2A (paired like homeobox 2A)	-0.1	1.71	0.188	0.143	-0.00537
CLCF1 (cardiotrophin like cytokine factor 1)	0.0428	1.73	0.168	-0.109	-0.0435
TLR9 (toll like receptor 9)	-0.312	1.97	-0.491	-0.201	-0.123
AMY1A (amylase alpha 1A)	-0.0374	1.47	0.107	-0.0795	-0.0933
SERPINC1 (serpin family C member 1)	0.427	1.74	0.574	0.504	0.258
AKAP19 (A-kinase anchoring protein 19)	0.706	3.97	0.636	0.717	0.417
MRPL30 (mitochondrial ribosomal protein L30)	-0.174	1.9	-0.101	-0.0457	-0.321
FKTN (fukutin)	-0.287	2.02	-0.171	-0.394	-0.0324
WIZ (WIZ zinc finger)	-0.26	1.4	-0.115	-0.574	-0.265
CCNB3 (cyclin B3)	0.281	1.48	0.249	0.275	0.195
SOD1 (superoxide dismutase 1)	-0.112	2.77	-0.381	-0.18	0.365
PSRC1 (proline and serine rich coiled-coil 1)	-0.489	2.13	-0.52	-0.479	-0.557
MEGF6 (multiple EGF like domains 6)	0.654	4.02	0.654	0.676	0.455
EPB41L4B (erythrocyte membrane protein band 4.1 like 4B)	-0.721	1.11	-0.678	-0.196	-0.368
HSPA2 (heat shock protein family A (Hsp70) member 2)	0.149	1.93	-0.148	0.182	-0.0901
WLS (Wnt ligand secretion mediator)	0.316	1.75	0.359	0.331	0.346
POU4F2 (POU class 4 homeobox 2)	-0.78	2.7	-0.872	-0.904	-0.741
ALDH1A2 (aldehyde dehydrogenase 1 family member A2)	-0.507	2.66	-0.626	-0.409	-0.282
KRCC1 (lysine rich coiled-coil 1)	0.703	2.16	0.495	0.708	0.899
ARFRP1 (ARF related protein 1)	-0.407	2.99	-0.278	-0.677	-0.35
PROX1 (prospero homeobox 1)	0.648	2.93	0.675	0.435	0.592
DOCK4 (dedicator of cytokinesis 4)	0.0267	1.22	0.163	0.179	-0.0565
SCG2 (secretogranin II)	0.652	2.16	0.655	0.552	0.644
PCDHA6 (protocadherin alpha 6)	0.68	1.61	0.648	0.801	0.626
CASP7 (caspase 7)	0.0527	1.4	-0.294	0.433	0.464
PPP1R3E (protein phosphatase 1 regulatory subunit 3E)	0.698	2.3	0.437	0.636	0.705
RAB38 (RAB38, member RAS oncogene family)	-0.49	3.68	-0.423	-0.557	-0.523
FLJ10246 (retired record)	0.674	1.86	0.804	0.444	0.539
TM2D2 (TM2 domain containing 2)	0.661	2.25	0.508	0.76	0.573
PRMT2 (protein arginine methyltransferase 2)	-0.545	2.25	-0.432	-0.671	-0.512
KCNK3 (potassium two pore domain channel subfamily K member 3)	-0.297	4.01	-0.185	-0.215	-0.305
NACAD (NAC alpha domain containing)	-0.554	2.53	-0.485	-0.49	-0.0305
FAM167A-AS1 (FAM167A antisense RNA 1)	0.761	2.27	0.612	0.795	0.871

Looked up above:
Entry of AMY1A (amylase alpha 1A) in “KSR1 correlation, replicate 3”: -0.0933
RAB38 (RAB38, member RAS oncogene family), KSR1 correlation, replicate 1 → -0.423
For “KSR1 correlation, replicate 3”, SERPINC1 (serpin family C member 1) shows 0.258
